# Primary screen of a compound library

Chains of the proteins cited; added tags and fusions are not shown.
UniProt P9WNZ1, whole entry: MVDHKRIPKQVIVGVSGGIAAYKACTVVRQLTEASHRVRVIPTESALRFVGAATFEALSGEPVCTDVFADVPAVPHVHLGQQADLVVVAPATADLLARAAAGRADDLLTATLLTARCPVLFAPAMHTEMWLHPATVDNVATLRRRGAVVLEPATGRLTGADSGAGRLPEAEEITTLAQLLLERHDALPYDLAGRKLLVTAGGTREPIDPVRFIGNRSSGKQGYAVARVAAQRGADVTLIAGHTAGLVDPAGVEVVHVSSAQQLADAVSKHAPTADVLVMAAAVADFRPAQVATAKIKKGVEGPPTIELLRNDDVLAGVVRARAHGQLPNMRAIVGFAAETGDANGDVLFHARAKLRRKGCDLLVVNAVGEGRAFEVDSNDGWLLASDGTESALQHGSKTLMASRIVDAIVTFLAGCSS
UniProt P9WFT3, whole entry: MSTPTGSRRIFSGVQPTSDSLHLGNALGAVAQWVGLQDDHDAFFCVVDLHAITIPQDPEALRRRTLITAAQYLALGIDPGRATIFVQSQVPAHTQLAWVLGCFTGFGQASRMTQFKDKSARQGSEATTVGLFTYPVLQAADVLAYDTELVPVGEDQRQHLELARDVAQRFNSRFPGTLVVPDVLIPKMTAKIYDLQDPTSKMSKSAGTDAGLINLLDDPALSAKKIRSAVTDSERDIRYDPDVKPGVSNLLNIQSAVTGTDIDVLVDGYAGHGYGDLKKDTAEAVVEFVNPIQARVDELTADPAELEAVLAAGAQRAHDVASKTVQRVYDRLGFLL
UniProt I6X8D2, whole entry: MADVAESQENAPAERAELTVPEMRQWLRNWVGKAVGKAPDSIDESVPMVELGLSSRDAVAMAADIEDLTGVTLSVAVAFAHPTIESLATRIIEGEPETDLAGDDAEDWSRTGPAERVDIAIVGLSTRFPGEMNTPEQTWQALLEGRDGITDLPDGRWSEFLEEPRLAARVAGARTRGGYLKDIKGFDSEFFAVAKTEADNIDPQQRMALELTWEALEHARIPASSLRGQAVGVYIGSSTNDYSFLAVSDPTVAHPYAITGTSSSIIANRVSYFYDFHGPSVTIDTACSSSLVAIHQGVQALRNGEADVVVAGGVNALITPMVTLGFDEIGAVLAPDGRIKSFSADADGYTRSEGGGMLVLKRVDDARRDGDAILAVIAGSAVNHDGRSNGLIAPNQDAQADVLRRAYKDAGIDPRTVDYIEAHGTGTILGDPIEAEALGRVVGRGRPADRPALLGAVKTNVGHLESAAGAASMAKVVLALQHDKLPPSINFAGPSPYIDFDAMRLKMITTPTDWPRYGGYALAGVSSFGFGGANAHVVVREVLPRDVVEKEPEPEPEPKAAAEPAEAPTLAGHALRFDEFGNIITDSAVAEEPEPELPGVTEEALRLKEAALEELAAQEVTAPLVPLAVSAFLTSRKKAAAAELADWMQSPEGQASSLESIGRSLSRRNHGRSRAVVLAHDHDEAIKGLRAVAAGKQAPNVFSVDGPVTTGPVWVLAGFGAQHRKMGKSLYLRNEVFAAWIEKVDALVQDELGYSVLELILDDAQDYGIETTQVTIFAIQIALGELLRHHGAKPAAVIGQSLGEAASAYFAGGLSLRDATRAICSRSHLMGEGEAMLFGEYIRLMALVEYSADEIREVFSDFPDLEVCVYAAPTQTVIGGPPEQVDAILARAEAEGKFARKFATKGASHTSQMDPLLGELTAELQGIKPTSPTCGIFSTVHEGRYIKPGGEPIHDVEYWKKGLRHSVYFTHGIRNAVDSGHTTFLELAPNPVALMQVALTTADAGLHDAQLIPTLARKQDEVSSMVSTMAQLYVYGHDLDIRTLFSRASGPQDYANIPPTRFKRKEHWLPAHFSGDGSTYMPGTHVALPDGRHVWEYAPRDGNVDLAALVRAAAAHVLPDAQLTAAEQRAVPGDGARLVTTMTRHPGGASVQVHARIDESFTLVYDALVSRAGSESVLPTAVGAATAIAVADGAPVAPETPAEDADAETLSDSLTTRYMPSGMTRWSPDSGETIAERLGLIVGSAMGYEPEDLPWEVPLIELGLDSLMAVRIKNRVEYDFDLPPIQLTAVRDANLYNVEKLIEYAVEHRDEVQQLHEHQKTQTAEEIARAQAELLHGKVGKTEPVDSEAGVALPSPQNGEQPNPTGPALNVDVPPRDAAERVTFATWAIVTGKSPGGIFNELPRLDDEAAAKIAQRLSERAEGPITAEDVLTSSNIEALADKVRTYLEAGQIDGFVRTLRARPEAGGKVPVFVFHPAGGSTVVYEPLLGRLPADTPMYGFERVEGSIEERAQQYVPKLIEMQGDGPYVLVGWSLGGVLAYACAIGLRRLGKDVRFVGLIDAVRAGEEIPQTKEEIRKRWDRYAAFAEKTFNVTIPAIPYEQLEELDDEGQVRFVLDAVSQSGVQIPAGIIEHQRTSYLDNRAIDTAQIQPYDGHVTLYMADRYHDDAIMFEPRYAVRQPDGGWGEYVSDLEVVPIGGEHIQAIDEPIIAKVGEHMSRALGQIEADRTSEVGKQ

Measurements from “University of Dundee, Small-Polar-MMV Screening Library” (2021), ChEMBL document CHEMBL3988442.

A: 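Coenzyme A biosynthesis protein CoaBC, Mycobacterium tuberculosis (UniProt P9WNZ1). Enzyme assay of CoaBC with a phosphate dye (Biomol Green) read at 650 nm. Compounds at 30 µM. Higher reads as stronger inhibition, judged from the few compounds that gave an IC50. Most strong results did not repeat in a second test. Size under these conditions: about 67,000 compounds, about 40 of them at 50% or above in at least one test.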
B: 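Enzyme assay of tryptophanyl-tRNA synthetase; the read-out is not stated. Target: Tryptophan-tRNA ligase, Mycobacterium tuberculosis (UniProt P9WFT3). Concentration: 10 µM. Direction is not recorded; retested compounds ran higher, which suggests that high means inhibition. Of about 65,000 compounds tested this way, about 64 (0.098%) reached 50% or more in at least one test.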
C: 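Enzyme assay of the thioesterase domain of polyketide synthase 13; the read-out is not stated. Target: Polyketide synthase Pks13, Mycobacterium tuberculosis (UniProt I6X8D2). Tested at 30 µM. The record gives no direction; the compounds picked for IC50 retests had high values, so higher reads as stronger inhibition. Size under these conditions: about 67,000 compounds, about 300 of them at 50% or above in at least one test.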

The filed quantity is “Percent Effect” (%). How 0% and 100% were set is not recorded. Most values in the screen are low, and negative values occur. Compounds were drawn at random from those tested, without regard to their results.

* O=C(CSC1=NS(=O)(=O)c2cc(F)ccc2N1)c1ccc(Cl)cc1 | A: 2.915%; B: 3.638%; C: -7.51%
* Cc1csc(CCNC(=O)N2CCC(n3cccc3)CC2)n1 | A: -0.1274%; B: -3.17%; C: -34.96%
* CC(C)C(O)C(C)(C)CNC(=O)NCc1ccc(-n2cncn2)cc1 (centres unmarked) | A: -6.867%; B: 0.4397%; C: -29.41%
* O=C(Cc1cccs1)N1Cc2nc(CN3CCCC3)oc2C1 | A: 0.2475%; C: -52.5%
* O=c1[nH]c2nc(N3CCCCCC3)ncc2c(=O)n1-c1cccc(F)c1 | A: 0.8861%; B: 4.203%; C: 0.2374%
* CCOC(=O)CCNC(=O)N1CCOC(Cc2cccc(OC)c2)C1 (centres unmarked) | A: 2.195%; B: -2.207%; C: -3.88%
* COc1cc(CN(C)C(=O)NC2CC2)ccc1SC | A: -3.831%; B: -5.449%; C: -20.66%
* CCc1ccc(NC(=O)N2C[C@H]3C[C@H](C(=O)N4CCCC4)[C@@H](C2)O3)cc1 | A: -1.091%; C: -33.71%
* O=C(O)c1cc2c(nc1-c1cncnc1)CCN(C1CCOC1)CC2 (centres unmarked) | A: -1.053%; B: 9.004%; C: 10.14%
* CCS(=O)(=O)c1ccc(N2CCC(NC(=O)c3cnn(C)c3)CC2)cc1 | A: 0%; B: 1.776%; C: -5.183%
* CN(CC(=O)N1CC(C)(C)[C@](O)(C2CC2)C1)Cc1ccncc1 | A: 4.8%; B: -4.741%; C: -9.68%
* Cn1cnnc1-c1ccnc(NCc2ccccc2)c1 | A: 4.28%; B: -1.709%; C: 2.588%
* CN(CCc1ccccn1)C(=O)c1cnn(-c2ccccc2F)c1N | A: 1.456%
* CC(CNC(=O)c1cc(N2CCNC2=O)ccc1F)c1ccccc1 (centres unmarked) | A: 2.122%; B: 2.658%; C: -15.84%
* O=C(NC1CCC1)[C@H]1C[C@@H]2CN(S(=O)(=O)c3ccccc3)C[C@H]1O2 | B: -0.8721%; C: -31.27%
* CCc1ccc(C(COC)NC(=O)c2ccc(F)c(NC(C)=O)c2)o1 (centres unmarked) | A: 7.233%; B: -3.154%; C: -20.36%
* COCCc1noc(CN2CCCC2c2c(C)nn(C)c2C)n1 (centres unmarked) | A: 5.346%; B: -0.08446%; C: -16.71%
* O=C1C(NS(=O)(=O)c2cccc(F)c2)CCN1Cc1ccccc1 (centres unmarked) | A: 2.887%; B: 2.063%; C: -7.416%
* COCCNc1cc(-c2ccccc2S(N)(=O)=O)c2cc[nH]c2n1 | A: -9.741%; B: 5.255%; C: 2.647%
* Cc1cc(N2CCc3c(nc(C(C)C)n3C)C2)nc(N)n1 | A: 2.386%; B: 3.186%
* COCCn1cnnc1Cn1ccnc1-c1ccoc1 | A: 4.141%; B: 1.498%; C: 5.469%

Some entries from above, unchanged:

{"structure": "O=C(CSC1=NS(=O)(=O)c2cc(F)ccc2N1)c1ccc(Cl)cc1", "A": 2.915, "B": 3.638, "C": -7.51}
{"structure": "CN(CCc1ccccn1)C(=O)c1cnn(-c2ccccc2F)c1N", "A": 1.456}